By solubility is commonly meant the concentration that dissolves in the medium under given conditions. Low readings indicate a poorly soluble substance, high ones a readily soluble substance.

The source of these data is article PMC11719397, “Monophthalates of betulinic acid and related pentacyclic triterpenes inhibit efficiently the SOS-mediated nucleotide exchange and impact PI3K/AKT signaling in oncogenic K-RAS4B proteins” (RSC Advances, 2025).

Values after ≈ are worked out from the molar mass of the structure shown.

The nature of this data set: physchem.

For the compound `COc1cc2nc(C)nc(N[C@H](C)c3cc(N)cc(C(F)(F)F)c3)c2cc1O[C@H]1CCOC1` [Compound 55, BI3406], the concentration in solution (solubility) came to 277 µM (≈ 128 µg/mL).
